Patent US20120302492A1
Results are given in words; binding and its absence hold for the method and conditions named. Some results given as binding are weak or reduced against the parent protein; the word gives no strength. For some assays here: Where a sequence is shown, tags or fusion partners need not be part of it.

Sequences of proteins named here, by UniProt entry; tags and fusion partners are left off. A change or cut given only in a name is not applied to a line headed by its entry. Residues count along the entry.
UniProt P02748, residues 22-559: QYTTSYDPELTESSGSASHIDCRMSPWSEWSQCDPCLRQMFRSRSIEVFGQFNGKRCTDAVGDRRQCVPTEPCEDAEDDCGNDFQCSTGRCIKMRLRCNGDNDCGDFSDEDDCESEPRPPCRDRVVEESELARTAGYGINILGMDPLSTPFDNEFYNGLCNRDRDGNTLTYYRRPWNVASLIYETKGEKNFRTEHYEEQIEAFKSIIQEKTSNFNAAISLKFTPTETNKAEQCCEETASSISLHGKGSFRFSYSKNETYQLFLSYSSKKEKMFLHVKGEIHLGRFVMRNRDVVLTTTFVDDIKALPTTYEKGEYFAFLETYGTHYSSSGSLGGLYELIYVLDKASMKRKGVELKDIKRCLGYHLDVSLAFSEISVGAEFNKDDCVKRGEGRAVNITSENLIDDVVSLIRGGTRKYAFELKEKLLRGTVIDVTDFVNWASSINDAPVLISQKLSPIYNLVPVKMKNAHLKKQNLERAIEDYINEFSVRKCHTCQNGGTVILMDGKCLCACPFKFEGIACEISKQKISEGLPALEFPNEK
UniProt P08514: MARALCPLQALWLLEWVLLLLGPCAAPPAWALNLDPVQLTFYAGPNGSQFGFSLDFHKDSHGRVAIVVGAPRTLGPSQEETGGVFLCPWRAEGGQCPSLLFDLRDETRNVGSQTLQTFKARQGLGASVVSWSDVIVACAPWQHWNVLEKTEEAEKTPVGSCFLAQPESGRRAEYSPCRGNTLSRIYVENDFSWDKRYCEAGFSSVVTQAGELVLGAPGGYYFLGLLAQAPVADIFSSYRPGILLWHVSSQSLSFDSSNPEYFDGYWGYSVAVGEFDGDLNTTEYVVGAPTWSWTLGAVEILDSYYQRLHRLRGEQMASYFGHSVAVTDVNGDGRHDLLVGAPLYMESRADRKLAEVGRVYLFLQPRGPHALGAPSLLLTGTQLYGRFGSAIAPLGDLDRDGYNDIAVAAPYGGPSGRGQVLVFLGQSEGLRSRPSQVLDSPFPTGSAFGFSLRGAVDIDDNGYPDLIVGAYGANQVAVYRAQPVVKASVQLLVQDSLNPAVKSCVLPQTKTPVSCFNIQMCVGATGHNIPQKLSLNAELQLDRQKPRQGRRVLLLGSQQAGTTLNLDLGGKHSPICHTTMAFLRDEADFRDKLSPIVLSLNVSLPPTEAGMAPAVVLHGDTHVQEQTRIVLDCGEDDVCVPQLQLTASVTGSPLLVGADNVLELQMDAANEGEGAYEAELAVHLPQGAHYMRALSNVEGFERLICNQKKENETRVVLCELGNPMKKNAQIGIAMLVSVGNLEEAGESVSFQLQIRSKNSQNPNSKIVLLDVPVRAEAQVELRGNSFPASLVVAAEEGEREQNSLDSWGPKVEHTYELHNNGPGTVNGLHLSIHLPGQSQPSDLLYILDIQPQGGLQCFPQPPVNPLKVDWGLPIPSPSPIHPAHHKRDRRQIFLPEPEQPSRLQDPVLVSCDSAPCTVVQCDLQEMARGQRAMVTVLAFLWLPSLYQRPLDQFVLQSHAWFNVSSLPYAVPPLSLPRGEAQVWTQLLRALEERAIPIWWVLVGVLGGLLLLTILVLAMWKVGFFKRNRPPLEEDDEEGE
UniProt P02671: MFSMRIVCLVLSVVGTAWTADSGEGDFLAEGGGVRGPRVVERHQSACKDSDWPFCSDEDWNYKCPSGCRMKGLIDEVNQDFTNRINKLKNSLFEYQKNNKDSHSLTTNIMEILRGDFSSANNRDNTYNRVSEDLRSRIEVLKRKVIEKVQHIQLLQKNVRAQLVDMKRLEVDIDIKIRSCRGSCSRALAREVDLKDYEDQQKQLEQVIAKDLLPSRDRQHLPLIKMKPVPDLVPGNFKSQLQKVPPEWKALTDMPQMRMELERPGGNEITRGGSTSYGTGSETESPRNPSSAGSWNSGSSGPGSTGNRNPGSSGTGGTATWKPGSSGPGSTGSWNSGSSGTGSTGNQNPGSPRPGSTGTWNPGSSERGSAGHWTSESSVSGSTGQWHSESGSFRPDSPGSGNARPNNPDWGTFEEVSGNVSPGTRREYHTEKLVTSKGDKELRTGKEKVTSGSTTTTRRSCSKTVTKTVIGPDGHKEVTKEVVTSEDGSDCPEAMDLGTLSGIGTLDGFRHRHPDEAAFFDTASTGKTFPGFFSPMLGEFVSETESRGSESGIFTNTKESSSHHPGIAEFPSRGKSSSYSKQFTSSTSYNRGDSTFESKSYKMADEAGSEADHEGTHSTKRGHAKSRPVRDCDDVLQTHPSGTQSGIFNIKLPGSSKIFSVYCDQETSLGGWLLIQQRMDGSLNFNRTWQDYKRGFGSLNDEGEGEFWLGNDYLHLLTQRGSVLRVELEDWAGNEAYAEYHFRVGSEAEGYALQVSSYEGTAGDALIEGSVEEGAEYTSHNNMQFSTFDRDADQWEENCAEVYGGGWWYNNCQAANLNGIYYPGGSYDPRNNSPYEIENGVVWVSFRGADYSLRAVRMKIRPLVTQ

Assays:
[1] = molecular target: C9 complement protein (UniProt P02748); experiment: ELISA, C9-coated plate
[2] = molecular target: GPIIb/IIIa protein (UniProt P08514); experiment: ELISA, GPIIb/IIIa-coated plate
[3] = molecular target: GPIIb/IIIa protein (UniProt P08514); experiment: ELISA, GPIIb/IIIa-coated plate, periplasmic fraction
[4] = molecular target: C9 complement protein (UniProt P02748); experiment: ELISA, C9-coated plate, periplasmic fraction
[5] = molecular target: GPIIb/IIIa protein (UniProt P08514); experiment: competitive ELISA, GPIIb/IIIa-coated plate, against CD59 F2 RGD3
[6] = molecular target: GPIIb/IIIa protein (UniProt P08514); experiment: competitive phage ELISA, GPIIb/IIIa-coated plate, against phage CD59/F2/RGD1
[7] = molecular target: C9 complement protein (UniProt P02748); experiment: phage ELISA, C9-coated plate
[8] = molecular target: GPIIb/IIIa protein (UniProt P08514); experiment: phage ELISA, GPIIb/IIIa-coated plate

## CD59/F1/RGD3 (from UniProt P13987 26-35; P13987 38-102) (designed binder)
[1]
  binding: binds
[2]
  binding: binds
[3]
  binding: binds
[4]
  binding: binds

## CD59/F2/RGD2 (from UniProt P13987 26-56; P13987 59-102) (designed binder)
[1]
  binding: binds
[2]
  binding: binds
[3]
  binding: binds
[4]
  binding: binds

## fibrinogen (from UniProt P02671 20-629; P02675 31-491; P02679 27-437) (ligand)
[5]
  binding: binds
[6]
  binding: binds

## phage CD59/F2/RGD2 (CD59-gIII fusion protein displayed on phage) (from UniProt P13987 26-56; P13987 59-102) (designed binder)
[7]
  binding: binds
[8]
  binding: binds

## phage CD59/F2/RGD3 (CD59-gIII fusion protein displayed on phage) (from UniProt P13987 26-56; P13987 59-102) (designed binder)
[7]
  binding: binds
[8]
  binding: binds

B1: human CD59 wild type, FLAG-tagged soluble protein (protein, UniProt P13987 26-102, looked up, not shown: small tags and cut ends)
chain: LQCYNCPNPTADCKTAVNCSSDFDACLITKAGLQVYNKCWKFEHCNFNDVTTRLRENELTYYCCKKDLCNFNEQLEN
[4]
  binding: binds

B2: CD59/F1/RGD1 (designed binder, not shown: small tags and cut ends)
chain: LQCYNCPNPTVARGDWNCKTAVNCSSDFDACLITKAGLQVYNKCWKFEHCNFNDVTTRLRENELTYYCCKKDLCNFNEQLEN
[1]
  binding: binds
[2]
  binding: binds
[3]
  binding: binds
[4]
  binding: binds

B3: phage wtCD59 (CD59-gIII fusion protein displayed on phage) (protein, human, UniProt P13987 26-102, looked up, not shown: small tags and cut ends; large carriers)
chain: B1 chain
[7]
  binding: binds
